These results are taken from the supplement of paper PMC8728848.

The target in test [1] is Neu5Gc(a2-8)Neu5Gc(a2-6)Gal(b1-4)GlcNAc. Nature of the test: glycan array binding signal (z-score within array); higher = stronger binding. The note with it: glycan notation: IUPAC condensed, linker removed. The essentials: (§1)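 Glycan array binding is given as a within-array Z-score, which can be read as non-binding when negative. The arrays, 3228 of them, came from the Consortium for Functional Glycomics database and were retained only where the protein sequence was available. Z-scores were averaged across arrays of the same protein sequence at different concentrations or buffers and across linkers.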

The target of test [2] is Neu5Gc(b2-6)Gal(b1-4)GlcNAc. The description is as above. The note with it: glycan notation: IUPAC condensed, linker removed. In a few lines: as §1

The list shows a part of the results.

B1: PX9961W-pdi-543-27-543 (Parabacteroides distasonis) (protein)
chain: EGNATTTSYFLNDQQAIDAIDGLYERFHQEGCYGRELFWEQGAACDIVWGRTRGYNSLATLAYTGDESPLRDVFSRMYSTMSRANWIIQELVKKEKGTTLTAVEKRSLGEAYFSRGWAHYLIAYRYGTDKQGVPFVRYEDFPDDYDNSIPPQQATVMDNYKLIIEDMDKAIAYLPIFESYDADNRGRAHQAAAVAFKAKTYAYWATWDATQWNNVIEMVNQLENNYNRDLAPTFAELFSSDLKDYWNAEYLWTIPSIGGALPGGTEFPGIILENKGWGKYNGWGQMKPSYDIYEEMAKDGKGNDRLVRSILEYNQEFPFFGETRKFWSTSDLEAGFMINKYMDAFKYSDPVGEGAVSANGDWPTVRVNFPIIRFAEMLLFRAEAYLMTGQADKATADINRIRLRSNLTPLTGTATMKDLYHERRCELAFEFTDHLFDLKRWNRSSNADIKTLADKELNAHPRIRRYEDRANPESAFTIIGYEDYTNKNAYQAHMMVFPYPSEEITKSNGQLKQNEGY
For the molecule B1, the “glycan array binding signal (z-score)” value was 0.393 in test [1] and 0.045 in test [2].
